# Results from the supplement of paper PMC8728848.
# This is one part of the list.
# B1: RbmA (Vibrio cholerae), A0A2H4NFB8 (protein)
# chain: MSNFKGSIMNKRHYYLASCLALLFSTASYAEVDCELQPVIEANLSLNQNQLASNGGYISSQLGIRNESCETVKFKYWLSIKGPEGIYFPAKAVVGVDTAQQESDALTDGRMLNVTRGFWVPEYMADGKYTVSLQVVAENGEVFKANQEFVKGGDLNSLPELNGLTIDIKNQFGINSVESTGGFVPFTIDLNNGREGEAKVEFWMTAVGPDGLIIPVHSREKWMIIAGNTFSKVRGINFDKSYPAGEYTINAQVVDIVSGERVEQLMTVVKK
# Key:
# Assay in all cases: glycan array binding signal (z-score within array); higher = stronger binding
# Details in all cases: glycan notation: IUPAC condensed, linker removed
# [1] = target: Fuc(a1-2)Gal
# In short: (§1)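 Columns mapping to the same glycan were averaged after glycan names were converted to IUPAC-condensed notation. The data come from 3228 arrays in the Consortium for Functional Glycomics database, limited to those with an available protein sequence. Binding is reported as a within-array Z-score averaged across arrays of one protein sequence and across linkers.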
# [2] = target: Fuc(a1-2)Gal(b1-3)GalNAc
# In short: as §1
# [3] = target: Fuc(a1-2)Gal(b1-3)GalNAc(a1-3)[Fuc(a1-2)]Gal(b1-4)Glc
# In short: as §1
# [4] = target: Fuc(a1-2)Gal(b1-3)GalNAc(a1-3)[Fuc(a1-2)]Gal(b1-4)GlcNAc
# In short: as §1
# [5] = target: Fuc(a1-2)Gal(b1-3)GalNAc(b1-3)Gal
# In short: as §1
# [6] = target: Fuc(a1-2)Gal(b1-3)GalNAc(b1-3)Gal(a1-4)Gal(b1-4)Glc
# In short: as §1
# [7] = target: Fuc(a1-2)Gal(b1-3)GalNAc(b1-4)[Neu5Ac(a2-3)]Gal(b1-4)Glc
# In short: as §1
# [8] = target: Fuc(a1-2)Gal(b1-3)GlcNAc
# In short: as §1
# [9] = target: Fuc(a1-2)Gal(b1-3)GlcNAc(b1-2)Man(a1-3)[Fuc(a1-2)Gal(b1-3)GlcNAc(b1-2)Man(a1-6)]Man(b1-4)GlcNAc(b1-4)GlcNAc
# In short: as §1
# [10] = target: Fuc(a1-2)Gal(b1-3)GlcNAc(b1-2)Man(a1-3)[Fuc(a1-2)Gal(b1-3)GlcNAc(b1-2)Man(a1-6)]Man(b1-4)GlcNAc(b1-4)[Fuc(a1-6)]GlcNAc
# In short: as §1
# [11] = target: Fuc(a1-2)Gal(b1-3)GlcNAc(b1-3)Gal(b1-4)Glc
# In short: as §1
# [12] = target: Fuc(a1-2)Gal(b1-3)GlcNAc(b1-3)GalNAc
# In short: as §1
# [13] = target: Fuc(a1-2)Gal(b1-3)GlcNAc(b1-3)[Fuc(a1-2)Gal(b1-3)GlcNAc(b1-6)]GalNAc
# In short: as §1
# [14] = target: Fuc(a1-2)Gal(b1-3)GlcNAc(b1-3)[Gal(b1-4)GlcNAc(b1-6)]Gal(b1-4)Glc
# In short: as §1
# [15] = target: Fuc(a1-2)Gal(b1-3)GlcNAc(b1-3)[Neu5Ac(a2-6)Gal(b1-4)GlcNAc(b1-6)]Gal(b1-4)Glc
# In short: as §1
# [16] = target: Fuc(a1-2)Gal(b1-3)GlcNAc6S
# In short: as §1
# [17] = target: Fuc(a1-2)Gal(b1-3)[Fuc(a1-4)]GlcNAc
# In short: as §1
# [18] = target: Fuc(a1-2)Gal(b1-3)[Fuc(a1-4)]GlcNAc(b1-2)Man(a1-3)[Fuc(a1-2)Gal(b1-3)[Fuc(a1-4)]GlcNAc(b1-2)Man(a1-3)]Man(b1-4)GlcNAc(b1-4)GlcNAc
# In short: as §1
# [19] = target: Fuc(a1-2)Gal(b1-3)[Fuc(a1-4)]GlcNAc(b1-2)Man(a1-3)[Fuc(a1-2)Gal(b1-3)[Fuc(a1-4)]GlcNAc(b1-2)Man(a1-6)]Man(b1-4)GlcNAc(b1-4)[Fuc(a1-6)]GlcNAc(b1-4)[Fuc(a1-6)]GlcNAc
# In short: as §1
# [20] = target: Fuc(a1-2)Gal(b1-3)[Fuc(a1-4)]GlcNAc(b1-3)[Fuc(a1-3)[Gal(b1-4)]GlcNAc(b1-6)]Gal(b1-4)Glc
# In short: as §1
# [21] = target: Fuc(a1-2)Gal(b1-3)[Fuc(a1-4)]GlcNAc(b1-3)[Gal(b1-4)GlcNAc(b1-6)]Gal(b1-4)Glc
# In short: as §1
# [22] = target: Fuc(a1-2)Gal(b1-4)Fuc(a1-3)]GlcNAc(b1-2)Man(a1-3)[Fuc(a1-2)Gal(b1-4)[Fuc(a1-3)]GlcNAc(b1-2)Man(a1-6)]Man(b1-4)GlcNAc(b1-4)GlcNAc
# In short: as §1
# [23] = target: Fuc(a1-2)Gal(b1-4)Glc
# In short: as §1
# [24] = target: Fuc(a1-2)Gal(b1-4)Glc6S
# In short: as §1
# [25] = target: Fuc(a1-2)Gal(b1-4)GlcNAc
# In short: as §1
# [26] = target: Fuc(a1-2)Gal(b1-4)GlcNAc(b1-2)Man
# In short: as §1
# [27] = target: Fuc(a1-2)Gal(b1-4)GlcNAc(b1-2)Man(a1-3)[Fuc(a1-2)Gal(b1-4)GlcNAc(b1-2)Man(a1-6)]Man(b1-4)GlcNAc(b1-4)GlcNAc
# In short: as §1
# [28] = target: Fuc(a1-2)Gal(b1-4)GlcNAc(b1-2)Man(a1-3)[Fuc(a1-2)Gal(b1-4)GlcNAc(b1-2)Man(a1-6)]Man(b1-4)GlcNAc(b1-4)[Fuc(a1-6)]GlcNAc
# In short: as §1
# [29] = target: Fuc(a1-2)Gal(b1-4)GlcNAc(b1-2)[Fuc(a1-2)Gal(b1-4)GlcNAc(b1-4)]Man(a1-3)[Fuc(a1-2)Gal(b1-4)GlcNAc(b1-2)Man(a1-6)]Man(b1-4)GlcNAc(b1-4)GlcNAc
# In short: as §1
# [30] = target: Fuc(a1-2)Gal(b1-4)GlcNAc(b1-3)Gal(b1-4)GlcNAc
# In short: as §1
binder,measurement,setting,value
B1,glycan array binding signal (z-score),[1],0.097
same,glycan array binding signal (z-score),[2],1.03
same,glycan array binding signal (z-score),[3],-0.829
same,glycan array binding signal (z-score),[4],0.053
same,glycan array binding signal (z-score),[5],0.428
same,glycan array binding signal (z-score),[6],-0.98
same,glycan array binding signal (z-score),[7],-0.337
same,glycan array binding signal (z-score),[8],-0.789
same,glycan array binding signal (z-score),[9],-0.376
same,glycan array binding signal (z-score),[10],0.85
same,glycan array binding signal (z-score),[11],-0.335
same,glycan array binding signal (z-score),[12],-0.035
same,glycan array binding signal (z-score),[13],0.774
same,glycan array binding signal (z-score),[14],-0.263
same,glycan array binding signal (z-score),[15],0.745
same,glycan array binding signal (z-score),[16],-0.085
same,glycan array binding signal (z-score),[17],0.049
same,glycan array binding signal (z-score),[18],-0.034
same,glycan array binding signal (z-score),[19],0.21
same,glycan array binding signal (z-score),[20],-0.87
same,glycan array binding signal (z-score),[21],-1.01
same,glycan array binding signal (z-score),[22],0.794
same,glycan array binding signal (z-score),[23],0.32
same,glycan array binding signal (z-score),[24],0.358
same,glycan array binding signal (z-score),[25],-0.22
same,glycan array binding signal (z-score),[26],-0.987
same,glycan array binding signal (z-score),[27],3.71
same,glycan array binding signal (z-score),[28],-0.691
same,glycan array binding signal (z-score),[29],0.893
same,glycan array binding signal (z-score),[30],0.264

# A run of entries taken from the entries so far, as a working copy:
binder,measurement,setting,value
B1,glycan array binding signal (z-score),[8],-0.789
same,glycan array binding signal (z-score),[9],-0.376
